No constants are given. Whether binding was seen depends on the method and setting. In cells and extracts the contact can be indirect. Some results given as binding are weak or reduced against the parent protein; the word gives no strength.
Assays:
[1] = target: Transcription factor EB (TFEB) (overexpressed) (UniProt P19484); experiment: co-IP; overexpressed PPP2CA and TFEB in HEK293T cells; which protein was precipitated is not given
[2] = target: Transcription factor EB (TFEB) (endogenous, mouse primary hepatocytes) (mouse (endogenous in mouse primary hepatocytes)) (UniProt Q9R210); experiment: co-IP; endogenous PPP2CA and TFEB in mouse primary hepatocytes; which protein was precipitated is not given

Protein sequences, listed by entry. Tags and fused reporters are not part of them.
UniProt P19484: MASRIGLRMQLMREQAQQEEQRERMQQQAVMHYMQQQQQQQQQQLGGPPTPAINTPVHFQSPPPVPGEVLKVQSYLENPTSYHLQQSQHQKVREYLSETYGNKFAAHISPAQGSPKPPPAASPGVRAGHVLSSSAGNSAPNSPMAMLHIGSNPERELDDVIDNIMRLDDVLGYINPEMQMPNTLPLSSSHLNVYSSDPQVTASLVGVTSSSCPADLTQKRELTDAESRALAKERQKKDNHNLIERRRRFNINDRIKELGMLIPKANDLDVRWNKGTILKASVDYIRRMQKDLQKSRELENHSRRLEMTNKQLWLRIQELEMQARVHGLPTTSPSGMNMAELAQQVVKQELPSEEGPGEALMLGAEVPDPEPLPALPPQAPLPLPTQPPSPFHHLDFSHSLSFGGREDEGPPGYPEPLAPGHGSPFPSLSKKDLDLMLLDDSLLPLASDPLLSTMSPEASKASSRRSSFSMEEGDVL
UniProt Q9R210: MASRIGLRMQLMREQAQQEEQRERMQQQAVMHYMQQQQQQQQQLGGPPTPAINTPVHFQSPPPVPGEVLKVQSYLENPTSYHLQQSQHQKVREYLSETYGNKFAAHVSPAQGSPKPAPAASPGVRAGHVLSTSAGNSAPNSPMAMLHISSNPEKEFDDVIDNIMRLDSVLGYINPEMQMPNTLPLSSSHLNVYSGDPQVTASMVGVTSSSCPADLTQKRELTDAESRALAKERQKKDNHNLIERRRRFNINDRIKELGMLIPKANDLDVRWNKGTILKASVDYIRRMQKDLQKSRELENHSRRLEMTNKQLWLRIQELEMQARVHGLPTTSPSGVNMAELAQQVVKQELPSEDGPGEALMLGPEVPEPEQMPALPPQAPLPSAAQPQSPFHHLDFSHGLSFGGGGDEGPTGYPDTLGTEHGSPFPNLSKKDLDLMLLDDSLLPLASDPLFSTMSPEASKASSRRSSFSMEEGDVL
UniProt P67775: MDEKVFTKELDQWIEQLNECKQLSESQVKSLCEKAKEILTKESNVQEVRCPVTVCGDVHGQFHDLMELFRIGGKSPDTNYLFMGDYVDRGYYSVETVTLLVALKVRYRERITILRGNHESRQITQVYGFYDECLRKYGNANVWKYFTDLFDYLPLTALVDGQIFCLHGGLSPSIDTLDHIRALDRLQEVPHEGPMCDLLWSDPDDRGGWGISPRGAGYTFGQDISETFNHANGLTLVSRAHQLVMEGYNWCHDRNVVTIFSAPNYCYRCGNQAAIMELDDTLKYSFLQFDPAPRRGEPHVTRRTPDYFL
UniProt P63330: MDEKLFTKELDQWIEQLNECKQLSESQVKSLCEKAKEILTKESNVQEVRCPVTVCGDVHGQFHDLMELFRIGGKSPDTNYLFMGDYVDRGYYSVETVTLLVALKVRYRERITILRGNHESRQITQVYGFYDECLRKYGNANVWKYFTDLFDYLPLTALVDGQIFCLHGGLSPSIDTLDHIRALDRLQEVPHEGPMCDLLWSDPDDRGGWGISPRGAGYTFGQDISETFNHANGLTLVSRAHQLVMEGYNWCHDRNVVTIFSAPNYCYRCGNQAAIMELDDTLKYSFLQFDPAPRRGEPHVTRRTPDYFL

Row | binding [1] | binding [2] | Substance
1 | binds |  | PPP2CA, a catalytic subunit of PP2A (overexpressed) (from UniProt P67775 1-309) (enzyme)
2 |  | binds | PPP2CA, a catalytic subunit of PP2A (endogenous, mouse primary hepatocytes) (from UniProt P63330 1-309) (enzyme)

Reference: PMC5518872
